This note sets out measurements from PMC7701562.

Amino acid sequences for entries named in this document (tags omitted). Residues count along the entry.
UniProt O00206, residues 24-839: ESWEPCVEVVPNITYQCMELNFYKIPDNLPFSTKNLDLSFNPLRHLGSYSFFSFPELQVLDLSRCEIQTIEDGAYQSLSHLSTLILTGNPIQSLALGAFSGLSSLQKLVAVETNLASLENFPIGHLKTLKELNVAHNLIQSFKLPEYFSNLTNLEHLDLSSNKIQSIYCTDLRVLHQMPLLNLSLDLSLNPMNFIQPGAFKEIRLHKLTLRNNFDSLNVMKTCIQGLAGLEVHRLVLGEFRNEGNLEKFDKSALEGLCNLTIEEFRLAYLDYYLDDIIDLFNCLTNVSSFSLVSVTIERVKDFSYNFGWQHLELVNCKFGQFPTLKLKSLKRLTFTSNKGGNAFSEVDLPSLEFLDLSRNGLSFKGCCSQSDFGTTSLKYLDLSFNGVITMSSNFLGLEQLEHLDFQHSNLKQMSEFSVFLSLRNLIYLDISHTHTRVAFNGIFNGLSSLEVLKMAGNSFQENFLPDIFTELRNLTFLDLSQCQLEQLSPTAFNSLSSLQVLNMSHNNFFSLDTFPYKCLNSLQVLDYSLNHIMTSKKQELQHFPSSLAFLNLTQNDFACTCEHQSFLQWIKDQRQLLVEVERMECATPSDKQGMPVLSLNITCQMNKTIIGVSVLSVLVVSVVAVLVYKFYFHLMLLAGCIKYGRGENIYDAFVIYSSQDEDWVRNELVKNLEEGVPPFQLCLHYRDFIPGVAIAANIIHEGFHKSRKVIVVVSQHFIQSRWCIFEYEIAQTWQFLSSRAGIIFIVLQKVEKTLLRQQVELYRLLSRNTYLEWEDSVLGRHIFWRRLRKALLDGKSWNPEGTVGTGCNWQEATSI

For this test, the target named is Toll‐like receptor 4 (TLR4) (human (endogenous in primary human OA chondrocytes)) (UniProt O00206). As to the kind of experiment: co-IP; lysates of primary human OA chondrocytes incubated with anti-TLR4 antibody for 1 h, protein G-Sepharose overnight at 4°C, washed with cold PBS, immunoblot with anti-MD-2; cells untreated, treated with LPS (1 μg/mL), LPS with Astilbin (40 μmol/L) pre-treatment, or Astilbin alone. In general terms: A western blot detects proteins with antibodies after separation by electrophoresis.

These are yes or no findings as the source states them, for the method shown. In cells and extracts the contact can be indirect. Some entries that bind do so weakly or less than the wild type.

B1: Myeloid differentiation protein‐2 (MD‐2) (protein, UniProt Q9Y6Y9 19-160)
chain: QKQYWVCNSSDASISYTYCDKMQYPISINVNPCIELKRSKGLLHIFYIPRRDLKQLYFNLYITVNTMNLPKRKEVICRGSDDDYSFCRALKGETVNTTISFSFKGIKFSKGKYKCVVEAISGSPEEMLFCLEFVILHQPNSN
For B1, the binding result is listed as “binds”.
